According to patent US20240336674A1:
No constants are given. Whether binding was seen depends on the method and setting. Some results given as binding are weak or reduced against the parent protein; the word gives no strength.

Target: T1, Rabbit Sema3A (rabbit) (UniProt G1T285)
T1 sequence: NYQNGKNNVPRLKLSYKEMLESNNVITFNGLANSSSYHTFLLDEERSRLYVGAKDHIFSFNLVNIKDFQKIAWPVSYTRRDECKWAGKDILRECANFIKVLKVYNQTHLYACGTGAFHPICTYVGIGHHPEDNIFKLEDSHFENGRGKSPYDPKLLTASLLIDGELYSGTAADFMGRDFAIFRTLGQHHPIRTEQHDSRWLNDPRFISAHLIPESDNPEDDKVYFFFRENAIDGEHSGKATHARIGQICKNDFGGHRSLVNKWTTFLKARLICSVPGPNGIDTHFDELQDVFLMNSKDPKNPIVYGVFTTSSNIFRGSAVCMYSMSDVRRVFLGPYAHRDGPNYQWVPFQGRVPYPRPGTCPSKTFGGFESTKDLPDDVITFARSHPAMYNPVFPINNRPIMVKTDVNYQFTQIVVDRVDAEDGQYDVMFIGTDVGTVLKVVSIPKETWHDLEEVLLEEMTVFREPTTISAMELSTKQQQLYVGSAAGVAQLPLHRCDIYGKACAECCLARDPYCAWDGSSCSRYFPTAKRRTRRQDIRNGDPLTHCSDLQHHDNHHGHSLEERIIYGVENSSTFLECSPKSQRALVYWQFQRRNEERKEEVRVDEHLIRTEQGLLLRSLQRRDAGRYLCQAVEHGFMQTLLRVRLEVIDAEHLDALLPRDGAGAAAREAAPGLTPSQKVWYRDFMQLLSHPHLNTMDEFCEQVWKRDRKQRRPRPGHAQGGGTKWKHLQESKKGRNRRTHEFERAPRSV
Test: biosensor GLM chip (BioRad), kinetic binding assay

binding: binds
B1: Antibody of the invention (clone I) (antibody, human IgG1, kappa, L234A L235A, V domains shown)
VH: EVQLVESGGGLVQPGGSLRLSCAASGFTFSSYYMSWVRQAPGKGLEWVSTIIKSGGYAYYPDSVKDRFTISRDNSKNTLYLQMSSLRAEDTAVYYCVRGGQGAMDYWGQGTTVTVSS
VL: EIVLTQSPATLSLSPGERATLSCRASQSIGDYLHWYQQKPGQAPRLLIKYASQSISGIPARFSGSGSGTDFTLTITSLEPEDFAVYYCQQGYSFPYTFGGGTKLEIKR
